Test results: the supplement of paper PMC10849652
The list shows a part of the results.

By UniProt entry, the sequences of proteins in these tests, tags left out. Where a name states a change or a piece, a line headed by the entry shows the natural chain unless it says otherwise.
UniProt Q9BYG0: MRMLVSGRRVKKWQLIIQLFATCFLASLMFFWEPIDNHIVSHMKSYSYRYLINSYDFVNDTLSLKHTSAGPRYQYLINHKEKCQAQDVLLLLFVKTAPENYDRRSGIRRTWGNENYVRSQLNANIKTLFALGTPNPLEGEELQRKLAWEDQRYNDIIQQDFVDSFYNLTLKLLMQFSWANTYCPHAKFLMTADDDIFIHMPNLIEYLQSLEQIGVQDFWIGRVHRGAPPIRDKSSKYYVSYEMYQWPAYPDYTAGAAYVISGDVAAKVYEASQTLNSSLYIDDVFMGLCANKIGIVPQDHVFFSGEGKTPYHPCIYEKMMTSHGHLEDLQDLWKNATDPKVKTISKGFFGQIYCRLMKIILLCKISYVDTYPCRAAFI
UniProt Q00973: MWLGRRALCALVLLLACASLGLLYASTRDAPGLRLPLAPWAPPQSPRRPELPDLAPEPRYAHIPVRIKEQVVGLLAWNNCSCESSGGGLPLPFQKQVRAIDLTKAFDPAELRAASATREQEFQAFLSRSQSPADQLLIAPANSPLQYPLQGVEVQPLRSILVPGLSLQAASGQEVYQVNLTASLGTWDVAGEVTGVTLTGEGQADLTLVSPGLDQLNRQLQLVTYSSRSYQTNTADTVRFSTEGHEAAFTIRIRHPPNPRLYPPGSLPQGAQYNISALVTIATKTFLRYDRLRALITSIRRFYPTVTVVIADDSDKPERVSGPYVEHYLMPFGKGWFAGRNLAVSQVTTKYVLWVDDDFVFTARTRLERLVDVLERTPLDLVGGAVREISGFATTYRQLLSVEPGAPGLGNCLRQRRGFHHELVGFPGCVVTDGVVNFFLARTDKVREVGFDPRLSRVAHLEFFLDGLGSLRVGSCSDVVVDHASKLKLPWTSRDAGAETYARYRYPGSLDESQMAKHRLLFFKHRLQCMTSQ
UniProt Q9BZE9, whole entry, looked up: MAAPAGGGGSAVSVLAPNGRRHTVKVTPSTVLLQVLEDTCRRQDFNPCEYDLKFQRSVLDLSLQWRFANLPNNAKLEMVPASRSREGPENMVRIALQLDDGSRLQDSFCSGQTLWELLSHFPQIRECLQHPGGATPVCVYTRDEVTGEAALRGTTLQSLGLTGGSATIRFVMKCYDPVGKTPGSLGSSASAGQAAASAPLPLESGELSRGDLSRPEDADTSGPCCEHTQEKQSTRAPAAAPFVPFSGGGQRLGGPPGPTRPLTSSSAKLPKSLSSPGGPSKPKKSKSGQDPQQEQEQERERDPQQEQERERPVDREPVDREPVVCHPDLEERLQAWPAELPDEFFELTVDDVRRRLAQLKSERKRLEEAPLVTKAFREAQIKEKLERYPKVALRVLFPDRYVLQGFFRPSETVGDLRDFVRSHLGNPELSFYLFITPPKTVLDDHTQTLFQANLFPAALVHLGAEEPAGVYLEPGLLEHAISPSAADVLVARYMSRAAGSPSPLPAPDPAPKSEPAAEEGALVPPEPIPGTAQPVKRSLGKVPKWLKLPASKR
UniProt P54252: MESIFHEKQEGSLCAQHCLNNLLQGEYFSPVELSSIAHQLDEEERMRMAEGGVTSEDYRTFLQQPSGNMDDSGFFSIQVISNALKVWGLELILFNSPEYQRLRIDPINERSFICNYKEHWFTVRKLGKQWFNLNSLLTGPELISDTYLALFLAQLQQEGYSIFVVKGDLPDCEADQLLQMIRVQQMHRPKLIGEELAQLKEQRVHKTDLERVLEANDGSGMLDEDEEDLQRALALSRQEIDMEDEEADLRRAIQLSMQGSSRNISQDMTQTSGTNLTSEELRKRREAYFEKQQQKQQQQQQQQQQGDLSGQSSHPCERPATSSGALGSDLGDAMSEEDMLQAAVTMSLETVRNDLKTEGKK
UniProt Q9NQS1: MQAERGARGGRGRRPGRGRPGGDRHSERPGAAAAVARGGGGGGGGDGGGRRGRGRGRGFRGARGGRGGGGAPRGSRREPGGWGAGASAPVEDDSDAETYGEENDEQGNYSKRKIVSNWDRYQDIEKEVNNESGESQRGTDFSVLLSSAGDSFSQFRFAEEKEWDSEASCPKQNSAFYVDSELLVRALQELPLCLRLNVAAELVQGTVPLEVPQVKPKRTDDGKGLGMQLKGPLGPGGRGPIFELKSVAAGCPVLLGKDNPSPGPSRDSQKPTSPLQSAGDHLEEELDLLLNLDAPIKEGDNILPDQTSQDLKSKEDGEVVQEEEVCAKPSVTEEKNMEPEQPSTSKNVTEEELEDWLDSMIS
UniProt P35670: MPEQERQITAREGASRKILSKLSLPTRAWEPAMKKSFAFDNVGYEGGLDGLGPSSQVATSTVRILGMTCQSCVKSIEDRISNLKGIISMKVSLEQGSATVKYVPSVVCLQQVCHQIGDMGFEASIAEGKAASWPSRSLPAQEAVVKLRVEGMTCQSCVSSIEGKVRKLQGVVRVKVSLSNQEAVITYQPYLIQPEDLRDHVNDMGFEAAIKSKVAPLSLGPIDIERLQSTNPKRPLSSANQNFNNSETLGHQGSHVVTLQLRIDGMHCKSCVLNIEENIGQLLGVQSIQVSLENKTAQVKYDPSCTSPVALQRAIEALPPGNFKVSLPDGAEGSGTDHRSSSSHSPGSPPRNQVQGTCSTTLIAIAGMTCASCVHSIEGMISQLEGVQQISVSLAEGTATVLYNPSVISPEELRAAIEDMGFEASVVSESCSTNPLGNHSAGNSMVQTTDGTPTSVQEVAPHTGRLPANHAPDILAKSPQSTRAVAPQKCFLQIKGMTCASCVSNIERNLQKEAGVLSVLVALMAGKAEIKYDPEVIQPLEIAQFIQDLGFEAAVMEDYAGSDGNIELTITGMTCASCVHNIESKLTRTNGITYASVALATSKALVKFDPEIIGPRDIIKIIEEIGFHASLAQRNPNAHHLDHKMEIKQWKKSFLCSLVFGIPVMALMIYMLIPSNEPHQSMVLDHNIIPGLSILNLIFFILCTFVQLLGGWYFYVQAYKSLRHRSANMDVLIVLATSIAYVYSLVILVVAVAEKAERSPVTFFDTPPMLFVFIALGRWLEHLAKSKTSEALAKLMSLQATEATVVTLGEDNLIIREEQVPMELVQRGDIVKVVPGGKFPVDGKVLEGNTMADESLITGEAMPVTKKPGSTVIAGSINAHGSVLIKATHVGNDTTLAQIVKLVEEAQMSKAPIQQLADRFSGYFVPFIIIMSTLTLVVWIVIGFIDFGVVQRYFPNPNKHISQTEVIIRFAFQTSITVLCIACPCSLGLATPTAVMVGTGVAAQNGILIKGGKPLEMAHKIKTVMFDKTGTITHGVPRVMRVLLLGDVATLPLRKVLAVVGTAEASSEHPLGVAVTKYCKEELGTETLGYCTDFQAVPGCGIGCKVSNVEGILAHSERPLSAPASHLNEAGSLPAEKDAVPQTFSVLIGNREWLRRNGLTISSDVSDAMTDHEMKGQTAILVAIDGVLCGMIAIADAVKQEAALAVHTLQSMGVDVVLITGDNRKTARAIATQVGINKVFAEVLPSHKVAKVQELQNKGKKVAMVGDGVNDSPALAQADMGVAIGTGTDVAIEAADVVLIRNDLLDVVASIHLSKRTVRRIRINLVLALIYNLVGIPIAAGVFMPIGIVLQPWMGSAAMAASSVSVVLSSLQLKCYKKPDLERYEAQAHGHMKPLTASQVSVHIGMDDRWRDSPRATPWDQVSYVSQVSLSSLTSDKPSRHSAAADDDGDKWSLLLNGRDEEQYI
UniProt Q5U623: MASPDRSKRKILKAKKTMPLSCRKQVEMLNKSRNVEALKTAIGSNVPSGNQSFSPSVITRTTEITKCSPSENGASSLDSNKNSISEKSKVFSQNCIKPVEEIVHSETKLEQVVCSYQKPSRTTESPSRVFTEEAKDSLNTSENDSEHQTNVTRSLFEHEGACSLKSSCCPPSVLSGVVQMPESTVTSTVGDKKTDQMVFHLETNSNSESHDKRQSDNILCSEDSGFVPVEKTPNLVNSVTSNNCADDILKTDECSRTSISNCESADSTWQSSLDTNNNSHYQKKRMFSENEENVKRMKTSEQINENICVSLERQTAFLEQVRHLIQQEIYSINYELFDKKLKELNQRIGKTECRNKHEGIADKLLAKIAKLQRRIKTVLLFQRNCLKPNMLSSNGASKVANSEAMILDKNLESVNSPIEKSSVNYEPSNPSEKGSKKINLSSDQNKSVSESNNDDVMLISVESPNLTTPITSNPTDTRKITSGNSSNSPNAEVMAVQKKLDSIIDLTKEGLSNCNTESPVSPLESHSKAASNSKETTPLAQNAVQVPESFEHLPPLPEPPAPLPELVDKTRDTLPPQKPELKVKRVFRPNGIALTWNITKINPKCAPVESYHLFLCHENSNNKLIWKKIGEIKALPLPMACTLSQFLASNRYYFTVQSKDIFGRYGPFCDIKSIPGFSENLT
UniProt Q96GD4, whole entry, looked up: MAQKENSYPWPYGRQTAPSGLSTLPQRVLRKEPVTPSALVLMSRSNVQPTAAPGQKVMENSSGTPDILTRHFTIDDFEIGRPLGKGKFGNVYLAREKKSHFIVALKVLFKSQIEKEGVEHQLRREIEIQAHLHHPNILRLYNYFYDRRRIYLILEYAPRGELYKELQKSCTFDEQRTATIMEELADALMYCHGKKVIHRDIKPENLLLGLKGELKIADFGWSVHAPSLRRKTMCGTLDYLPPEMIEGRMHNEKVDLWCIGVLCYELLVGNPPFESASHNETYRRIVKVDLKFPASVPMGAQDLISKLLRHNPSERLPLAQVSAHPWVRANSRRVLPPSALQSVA
UniProt Q9Y575: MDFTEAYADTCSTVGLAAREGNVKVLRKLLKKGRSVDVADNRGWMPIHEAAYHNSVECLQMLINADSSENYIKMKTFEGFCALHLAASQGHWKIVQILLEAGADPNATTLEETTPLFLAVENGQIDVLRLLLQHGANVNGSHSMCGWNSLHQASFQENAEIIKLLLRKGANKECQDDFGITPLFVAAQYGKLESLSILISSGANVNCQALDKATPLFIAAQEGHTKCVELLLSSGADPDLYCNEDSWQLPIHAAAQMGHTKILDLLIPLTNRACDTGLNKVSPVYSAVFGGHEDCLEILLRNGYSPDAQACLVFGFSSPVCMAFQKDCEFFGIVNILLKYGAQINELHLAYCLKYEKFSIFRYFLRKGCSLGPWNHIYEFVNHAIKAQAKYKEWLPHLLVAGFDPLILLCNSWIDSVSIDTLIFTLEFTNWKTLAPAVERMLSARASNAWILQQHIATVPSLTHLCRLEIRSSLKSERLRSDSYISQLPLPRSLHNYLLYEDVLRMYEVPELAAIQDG
UniProt Q9NVI7: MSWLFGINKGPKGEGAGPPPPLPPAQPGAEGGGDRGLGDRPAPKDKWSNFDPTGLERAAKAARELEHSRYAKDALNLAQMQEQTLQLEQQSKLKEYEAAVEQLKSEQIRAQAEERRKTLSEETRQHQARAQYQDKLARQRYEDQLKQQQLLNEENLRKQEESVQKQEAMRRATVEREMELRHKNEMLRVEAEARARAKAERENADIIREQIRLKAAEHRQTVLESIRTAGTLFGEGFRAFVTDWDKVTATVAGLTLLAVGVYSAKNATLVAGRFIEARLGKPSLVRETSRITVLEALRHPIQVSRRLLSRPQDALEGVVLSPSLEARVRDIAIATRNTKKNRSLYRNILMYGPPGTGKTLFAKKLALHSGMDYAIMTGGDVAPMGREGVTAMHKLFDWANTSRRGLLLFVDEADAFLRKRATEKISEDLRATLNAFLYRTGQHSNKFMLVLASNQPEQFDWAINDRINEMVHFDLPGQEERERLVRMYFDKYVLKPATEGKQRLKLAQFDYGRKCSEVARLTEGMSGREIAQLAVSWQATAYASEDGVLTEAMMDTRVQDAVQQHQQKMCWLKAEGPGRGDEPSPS
UniProt P27449, whole entry, looked up: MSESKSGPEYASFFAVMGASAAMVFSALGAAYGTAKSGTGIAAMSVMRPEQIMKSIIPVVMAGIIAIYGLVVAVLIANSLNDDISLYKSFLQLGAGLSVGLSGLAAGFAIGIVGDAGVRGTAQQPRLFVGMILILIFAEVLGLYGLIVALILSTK

Columns and labels:
Test in all cases: log2 fold change, soluble protein after heating vs DMSO (PISA); higher = thermal stabilisation; K562 lysate, 10 uM; active = over 0.2 and 3.5 SD of the protein, either way, in both replicates (recomputed)
vemurafenib = compound: CCCS(=O)(=O)Nc1ccc(F)c(C(=O)c2c[nH]c3ncc(-c4ccc(Cl)cc4)cc23)c1F [vemurafenib]
How it was run: (§1)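 Quantification was by TMTpro 16plex LC-MS/MS with equalised channel sums, applied to the supernatant after 21,000xg for 90 min. Samples were crude K562 extract at 1 mg/mL protein in PBS pH 7.4 with 1 mM MgCl2, treated with 10 μM compound for 30 min, heated for 3 min across 48°C-58°C, pooled and brought to 0.5% NP-40 at 4°C. Values are log-two fold changes in thermal stability relative to solvent controls, from duplicates.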

[1] = compound: CCCS(=O)(=O)Nc1ccc(F)c(C(=O)c2c[nH]c3ncc(Cl)cc23)c1F
How it was run: as §1

barasertib = compound: CCN(CCCOc1ccc2c(Nc3cc(CC(=O)Nc4cccc(F)c4)[nH]n3)ncnc2c1)CCOP(=O)(O)O [barasertib]
How it was run: as §1

[2] = compound: CC[C@@H]1C(=O)N(C)c2cnc(Nc3ccc(C(=O)NC4CCN(C)CC4)cc3OC)nc2N1C1CCCC1
How it was run: as §1

volasertib = compound: CC[C@@H]1C(=O)N(C)c2cnc(Nc3ccc(C(=O)N[C@H]4CC[C@H](N5CCN(CC6CC6)CC5)CC4)cc3OC)nc2N1C(C)C [volasertib]
How it was run: as §1

[3] = compound: CCn1c(C(=O)N(C2CC2)C2CC2)cc2c3c(ncn3C)c(Nc3cc(C)n(C)n3)nc21
How it was run: as §1

[4] = compound: CCn1cc(-c2ccnc3[nH]c(-c4cccc(CN(C)C)c4)cc23)c(-c2ccc(NC(=O)N(C)C)cc2)n1
How it was run: as §1

[5] = compound: CN1CCC(CNc2ccc3ncc(-c4cccc(OC(F)(F)F)c4)n3n2)CC1
How it was run: as §1

saracatinib = compound: CN1CCN(CCOc2cc(OC3CCOCC3)c3c(Nc4c(Cl)ccc5c4OCO5)ncnc3c2)CC1 [saracatinib]
How it was run: as §1

alvocidib = compound: CN1CC[C@H](c2c(O)cc(O)c3c(=O)cc(-c4ccccc4Cl)oc23)[C@H](O)C1 [alvocidib]
How it was run: as §1

Tubastatin A = compound: CN1CCc2c(c3ccccc3n2Cc2ccc(C(=O)NO)cc2)C1 [Tubastatin A]
How it was run: as §1

[6] = compound: CNC(=O)C1=CC=CC=C1NC2=NC(=NC=C2Cl)NC3=C(C=C(C=C3)N4CCOCC4)OC
How it was run: as §1

defactinib = compound: CNC(=O)c1ccc(Nc2ncc(C(F)(F)F)c(NCc3nccnc3N(C)S(C)(=O)=O)n2)cc1 [defactinib]
How it was run: as §1

[7] = compound: CNc1nc(-c2ccc3c(N)n[nH]c3c2)cc(N2C[C@@H](C(=O)NC3CCCCC3)CC[C@H]2C)n1
How it was run: as §1

encorafenib = compound: COC(=O)N[C@@H](C)CNc1nccc(-c2cn(C(C)C)nc2-c2cc(Cl)cc(NS(C)(=O)=O)c2F)n1 [encorafenib]
How it was run: as §1

[8] = compound: COC(=O)[C@H](CCSC)NC(=O)C1=C(C=C(C=C1)NC[C@H](CS)N)C2=CC=CC=C2
How it was run: as §1

[9] = compound: COc1cc2nc(-c3cc(F)ccc3O)nc(N[C@@H]3CNC[C@H]3C(C)(C)O)c2cc1OC
How it was run: as §1

sotrastaurin = compound: CN1CCN(c2nc(C3=C(c4c[nH]c5ccccc45)C(=O)NC3=O)c3ccccc3n2)CC1 [sotrastaurin]
How it was run: as §1

alisertib = compound: COc1cc(Nc2ncc3c(n2)-c2ccc(Cl)cc2C(c2c(F)cccc2OC)=NC3)ccc1C(=O)O [alisertib]
How it was run: as §1

gefitinib = compound: COc1cc2ncnc(Nc3ccc(F)c(Cl)c3)c2cc1OCCCN1CCOCC1 [gefitinib]
How it was run: as §1

Target	log2 fold change (vemurafenib)	log2 fold change [1]	log2 fold change (barasertib)	log2 fold change [2]	log2 fold change (volasertib)	log2 fold change [3]	log2 fold change [4]	log2 fold change [5]	log2 fold change (saracatinib)	log2 fold change (alvocidib)	log2 fold change (Tubastatin A)	log2 fold change [6]	log2 fold change (defactinib)	log2 fold change [7]	log2 fold change (encorafenib)	log2 fold change [8]	log2 fold change [9]	log2 fold change (sotrastaurin)	log2 fold change (alisertib)	log2 fold change (gefitinib)
B3GNT5 (UniProt Q9BYG0)	inactive: 0.217	inactive: 0.143	inactive: -0.098	inactive: 0.232	inactive: -0.055	inactive: -0.045	inactive: -0.026	inactive: -0.105	inactive: 0.066	inactive: 0.079	inactive: -0.013	inactive: -0.101	inactive: 0.227	inactive: -0.114	inactive: -0.019	inactive: 0.006	inactive: 0.104			
B4GALNT1 (UniProt Q00973)	inactive: -0.036	inactive: 0.004		inactive: 0.057	inactive: 0.058	inactive: -0.087	inactive: 0.078	inactive: -0.058	inactive: -0.05	inactive: -0.137	inactive: 0.066	inactive: -0.017	inactive: 0.029	inactive: 0.083	inactive: 0.105	inactive: -0.019	inactive: 0.1	inactive: 0.027	inactive: 0.01	inactive: 0.041
ASPSCR1 (UniProt Q9BZE9)	inactive: -0.029	inactive: 0.003	inactive: 0.018	inactive: 0.019	inactive: -0.029	inactive: -0.004	inactive: 0.019	inactive: 0.001	inactive: 0.009	inactive: -0.031	inactive: -0.023	inactive: 0.053	inactive: 0.037	inactive: -0.019	inactive: -0.016	inactive: 0.001	inactive: -0.006	inactive: 0.02	inactive: -0.017	inactive: -0.037
ATXN3 isoform 1 (UniProt P54252)	inactive: -0.029	inactive: -0.002	inactive: 0.042	inactive: -0.01	inactive: -0.032	inactive: -0.034	inactive: 0.058	inactive: -0.025	inactive: 0.057	inactive: -0.015	inactive: 0.019	inactive: -0.006	inactive: 0.014	inactive: -0.029	inactive: 0.041	inactive: 0.009	inactive: -0.042	inactive: 0.027	inactive: -0.033	inactive: -0.013
AVEN (UniProt Q9NQS1)	inactive: 0.177		inactive: -0.091	inactive: 0.117		inactive: -0.025	active: -0.651	inactive: 0.167	inactive: 0	inactive: -0.047	inactive: -0.154	inactive: 0.049	inactive: -0.097	inactive: 0.082	inactive: 0.017	inactive: 0.016		inactive: -0.007	inactive: 0.061	inactive: -0.09
ATP7B (UniProt P35670)	inactive: 0.047	inactive: -0.019	inactive: 0.067	inactive: -0.051	inactive: 0.106		inactive: 0.026	inactive: 0.009	inactive: 0.144	inactive: -0.052		inactive: -0.012	inactive: -0.028	inactive: 0.034	inactive: 0.056	inactive: -0.134	inactive: -0.083	inactive: -0.023	inactive: 0.006	inactive: -0.004
ATF7IP2 (UniProt Q5U623)	inactive: 0.062	inactive: -0.041	inactive: 0.009		inactive: 0.083	inactive: -0.064	inactive: -0.145	inactive: 0.197		inactive: -0.197	inactive: 0.071	inactive: -0.065	inactive: -0.072				inactive: 0.064	inactive: 0.031	inactive: 0.003	inactive: 0.044
AURKB isoform 5 (UniProt Q96GD4)	inactive: 0.165		inactive: 0.738	inactive: -0.003			inactive: 0.67	inactive: 0.093	inactive: 0	inactive: -0.234		inactive: 0.449	inactive: 0.107	inactive: 0.216	inactive: -0.054	inactive: 0.19		inactive: -0.018	inactive: 0.347	inactive: -0.044
ASB3 isoform 3 (UniProt Q9Y575)	inactive: 0.122		inactive: 0.186	inactive: -0.176									inactive: 0.111		inactive: 0.087	inactive: -0.195			inactive: 0.103	inactive: -0.114
ASPM (UniProt Q8IZT6)	inactive: 0.071	inactive: 0.033		inactive: -0.092	inactive: 0.011	inactive: 0.037	inactive: 0.049	inactive: 0.005	inactive: 0.079	inactive: 0.017	inactive: 0.016	inactive: 0.052	inactive: 0.013	inactive: 0.06	inactive: -0.002	inactive: 0.026	inactive: 0.003	inactive: -0.004	inactive: -0.004	inactive: 0.011
ATAD3A (UniProt Q9NVI7)	inactive: -0.018	inactive: 0.007	inactive: 0.035	inactive: 0.009	inactive: 0.004	inactive: 0.037	inactive: 0.031	inactive: -0.175	inactive: 0	inactive: 0.062	inactive: -0.018	inactive: -0.008	inactive: -0.077	inactive: 0.005	inactive: 0.081	inactive: -0.062	inactive: -0.001	inactive: 0.03	inactive: 0	inactive: -0.008
ATP6V0C (UniProt P27449)	inactive: -0.033	inactive: 0.026	inactive: -0.062	inactive: 0.024	inactive: 0.031	inactive: -0.048	inactive: -0.052	inactive: 0.181	inactive: -0.026	inactive: 0.003	inactive: -0.05	inactive: -0.048	inactive: 0.223	inactive: -0.002	inactive: 0.093	inactive: -0.127	inactive: 0.001	inactive: 0.005		

Two records drawn at random from the list so far:
Target	log2 fold change (vemurafenib)	log2 fold change [1]	log2 fold change (barasertib)	log2 fold change [2]	log2 fold change (volasertib)	log2 fold change [3]	log2 fold change [4]	log2 fold change [5]	log2 fold change (saracatinib)	log2 fold change (alvocidib)	log2 fold change (Tubastatin A)	log2 fold change [6]	log2 fold change (defactinib)	log2 fold change [7]	log2 fold change (encorafenib)	log2 fold change [8]	log2 fold change [9]	log2 fold change (sotrastaurin)	log2 fold change (alisertib)	log2 fold change (gefitinib)
ATP7B (UniProt P35670)	inactive: 0.047	inactive: -0.019	inactive: 0.067	inactive: -0.051	inactive: 0.106		inactive: 0.026	inactive: 0.009	inactive: 0.144	inactive: -0.052		inactive: -0.012	inactive: -0.028	inactive: 0.034	inactive: 0.056	inactive: -0.134	inactive: -0.083	inactive: -0.023	inactive: 0.006	inactive: -0.004
B4GALNT1 (UniProt Q00973)	inactive: -0.036	inactive: 0.004		inactive: 0.057	inactive: 0.058	inactive: -0.087	inactive: 0.078	inactive: -0.058	inactive: -0.05	inactive: -0.137	inactive: 0.066	inactive: -0.017	inactive: 0.029	inactive: 0.083	inactive: 0.105	inactive: -0.019	inactive: 0.1	inactive: 0.027	inactive: 0.01	inactive: 0.041
